Record: PubChem BioAssay AID1259254 (NCATS, 2017)
Here is an unselected part of about 59,000 reagents. Of all reagents, about 1,550 (2.6%) are marked active. 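G2 share is only a proxy for re-replication; each gene was hit by three separate siRNAs, and active genes were retested.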 The numbers tell different reagents against one gene apart. Not all columns of the deposit are shown. Not given: the amount of reagent.

- Test: 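Gene knock-downs that lead to re-replication, shown by excess G2 DNA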 (primary screen)
- System: human HCT116 colorectal cancer cells
- Reagents: single siRNA against human genes
- Timing: 3 days
- Read-out: 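Nuclei stained with Hoechst and imaged; cell-cycle phase assigned by DNA content; G2 share scaled per plate, non-targeting siRNA 0%, GMNN siRNA 100%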
- Reading the numbers: G2 robust z-score: higher = more G2 cells, more excess DNA replication
- Active means: 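An siRNA counts as active if its G2 robust z-score lies at least 5 MADs above the screen median; here such calls match roughly 38% of GMNN control or more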

FXYD6 (GeneID 53826) #1 gave G2 robust z-score 0.0143; inactive. Knock-down of FXYD6 (GeneID 53826) #2 resulted in: G2 robust z-score -0.786; inactive. With knock-down of FXYD6 (GeneID 53826) #3, the record shows G2 robust z-score -0.291; inactive. TTF2 (GeneID 8458) #1 showed G2 robust z-score -0.174; inactive. Knock-down of TTF2 (GeneID 8458) #2 resulted in: G2 robust z-score -1.15; inactive. Depletion of TTF2 (GeneID 8458) #3 gave: G2 robust z-score 6.14; active.

KLHL22 (GeneID 84861) #1 showed G2 robust z-score -0.65; inactive. KLHL22 (GeneID 84861) #2 showed G2 robust z-score 1.13; inactive. With knock-down of KLHL22 (GeneID 84861) #3, the screen gave G2 robust z-score 0.969; inactive. Silencing of MFAP1 (GeneID 4236) #1 gave: G2 robust z-score -0.452; inactive. For MFAP1 (GeneID 4236) #2, the entry reads G2 robust z-score 0.338; inactive. For MFAP1 (GeneID 4236) #3 the deposit lists G2 robust z-score 0.235; inactive.

Knock-down of DDO (GeneID 8528) #1 resulted in: G2 robust z-score -0.71; inactive. Against DDO (GeneID 8528) #2 the deposit lists G2 robust z-score -0.547; inactive. Against DDO (GeneID 8528) #3, the entry reads G2 robust z-score -0.789; inactive. RPS12P4 (GeneID 391370) #1 showed G2 robust z-score 3.5; inactive. RPS12P4 (GeneID 391370) #2 gave G2 robust z-score -0.221; inactive. Against RPS12P4 (GeneID 391370) #3, the values are G2 robust z-score 0.23; inactive.

After knock-down of CLDN20 (GeneID 49861) #1 the results were G2 robust z-score 0.875; inactive. For CLDN20 (GeneID 49861) #2 the deposit lists G2 robust z-score -0.00232; inactive. Silencing of CLDN20 (GeneID 49861) #3 resulted in: G2 robust z-score -1.1; inactive. With knock-down of PSMA3 (GeneID 5684) #1, the screen gave G2 robust z-score 4.64; inactive. After knock-down of PSMA3 (GeneID 5684) #2 the results were G2 robust z-score 3.53; inactive. Silencing of PSMA3 (GeneID 5684) #3 resulted in: G2 robust z-score 1.04; inactive.

ZNF724 (GeneID 440519) #1 showed G2 robust z-score 0.487; inactive. ZNF724 (GeneID 440519) #2 scored G2 robust z-score -0.897; inactive. Against ZNF724 (GeneID 440519) #3, the values are G2 robust z-score 1.85; inactive. PAFAH1B3 (GeneID 5050) #1 gave G2 robust z-score -1.44; inactive. After knock-down of PAFAH1B3 (GeneID 5050) #2 the results were G2 robust z-score -0.691; inactive. PAFAH1B3 (GeneID 5050) #3 gave G2 robust z-score 0.476; inactive.
